Assay results taken from the M2OR odorant receptor database.
This is a selection; strong and weak results do not stand in their true shares. The calls were merged from several studies; some rest on single wells. The list shows a part of the results.

Chains of the proteins cited; added tags and fusions are not shown. A change or cut given only in a name is not applied to a line headed by its entry. A line that says so, or that is headed by a name, gives the form on record, which may keep a tag or linker.
UniProt Q8NGI6: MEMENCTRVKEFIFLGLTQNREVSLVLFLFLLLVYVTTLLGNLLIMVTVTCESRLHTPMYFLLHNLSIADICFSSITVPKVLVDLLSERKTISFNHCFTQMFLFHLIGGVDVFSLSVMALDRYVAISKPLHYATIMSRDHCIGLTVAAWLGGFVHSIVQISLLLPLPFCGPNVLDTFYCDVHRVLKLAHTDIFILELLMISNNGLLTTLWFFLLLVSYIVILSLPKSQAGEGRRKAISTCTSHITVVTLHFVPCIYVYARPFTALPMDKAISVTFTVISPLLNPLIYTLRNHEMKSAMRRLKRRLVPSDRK
UniProt Q8NGI4: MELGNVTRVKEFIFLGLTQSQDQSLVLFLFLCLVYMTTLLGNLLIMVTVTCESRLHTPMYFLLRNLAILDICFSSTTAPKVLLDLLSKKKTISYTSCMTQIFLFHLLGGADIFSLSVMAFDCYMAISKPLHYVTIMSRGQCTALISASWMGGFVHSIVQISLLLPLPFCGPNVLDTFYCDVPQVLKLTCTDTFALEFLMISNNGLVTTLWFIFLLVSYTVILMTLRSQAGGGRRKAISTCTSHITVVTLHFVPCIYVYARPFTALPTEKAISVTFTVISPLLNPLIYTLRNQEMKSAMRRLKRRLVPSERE
UniProt Q8NGN0: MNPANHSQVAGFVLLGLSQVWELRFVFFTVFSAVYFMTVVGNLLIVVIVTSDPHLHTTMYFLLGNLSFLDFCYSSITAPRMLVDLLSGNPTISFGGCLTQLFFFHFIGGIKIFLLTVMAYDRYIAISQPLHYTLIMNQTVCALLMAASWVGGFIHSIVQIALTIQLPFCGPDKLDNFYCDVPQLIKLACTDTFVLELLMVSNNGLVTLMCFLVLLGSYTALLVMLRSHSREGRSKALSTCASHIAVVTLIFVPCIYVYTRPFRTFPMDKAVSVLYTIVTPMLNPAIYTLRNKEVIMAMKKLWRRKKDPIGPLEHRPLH
UniProt Q8NGE8: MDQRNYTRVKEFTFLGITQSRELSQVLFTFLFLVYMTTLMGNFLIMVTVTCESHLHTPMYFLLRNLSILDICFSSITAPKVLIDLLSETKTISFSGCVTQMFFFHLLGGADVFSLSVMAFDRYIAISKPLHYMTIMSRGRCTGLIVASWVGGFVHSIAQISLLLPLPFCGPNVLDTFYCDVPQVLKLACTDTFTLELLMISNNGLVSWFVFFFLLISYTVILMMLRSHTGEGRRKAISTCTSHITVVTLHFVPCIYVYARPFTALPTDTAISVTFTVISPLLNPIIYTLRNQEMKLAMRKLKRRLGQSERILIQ
UniProt Q15615: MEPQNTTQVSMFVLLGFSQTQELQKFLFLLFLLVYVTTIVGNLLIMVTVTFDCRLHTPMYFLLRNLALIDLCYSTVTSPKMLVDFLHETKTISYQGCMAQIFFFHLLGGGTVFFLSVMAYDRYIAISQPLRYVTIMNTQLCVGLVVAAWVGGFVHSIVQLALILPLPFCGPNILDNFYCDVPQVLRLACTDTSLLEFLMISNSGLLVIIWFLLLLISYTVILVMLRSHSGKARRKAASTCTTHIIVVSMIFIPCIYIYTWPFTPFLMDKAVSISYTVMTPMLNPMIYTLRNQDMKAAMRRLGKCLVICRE
UniProt P58180: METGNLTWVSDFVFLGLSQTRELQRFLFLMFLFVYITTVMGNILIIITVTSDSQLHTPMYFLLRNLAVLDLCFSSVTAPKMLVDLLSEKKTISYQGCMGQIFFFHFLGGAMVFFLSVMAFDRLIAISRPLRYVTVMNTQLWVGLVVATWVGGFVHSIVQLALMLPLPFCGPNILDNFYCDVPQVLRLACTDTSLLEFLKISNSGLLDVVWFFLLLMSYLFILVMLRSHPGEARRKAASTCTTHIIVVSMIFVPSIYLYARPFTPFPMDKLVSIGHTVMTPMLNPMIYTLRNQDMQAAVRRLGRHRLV
UniProt Q8NGJ1: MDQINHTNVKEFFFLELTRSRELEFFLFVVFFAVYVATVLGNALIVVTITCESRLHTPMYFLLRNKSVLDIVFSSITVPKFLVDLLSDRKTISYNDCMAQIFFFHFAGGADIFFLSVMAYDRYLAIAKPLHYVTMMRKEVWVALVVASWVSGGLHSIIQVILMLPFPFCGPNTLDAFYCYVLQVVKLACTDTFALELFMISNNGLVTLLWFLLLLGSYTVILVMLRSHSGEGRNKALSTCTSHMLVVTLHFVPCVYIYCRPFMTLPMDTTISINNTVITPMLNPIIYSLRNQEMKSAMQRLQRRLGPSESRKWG
UniProt Q8NGA8: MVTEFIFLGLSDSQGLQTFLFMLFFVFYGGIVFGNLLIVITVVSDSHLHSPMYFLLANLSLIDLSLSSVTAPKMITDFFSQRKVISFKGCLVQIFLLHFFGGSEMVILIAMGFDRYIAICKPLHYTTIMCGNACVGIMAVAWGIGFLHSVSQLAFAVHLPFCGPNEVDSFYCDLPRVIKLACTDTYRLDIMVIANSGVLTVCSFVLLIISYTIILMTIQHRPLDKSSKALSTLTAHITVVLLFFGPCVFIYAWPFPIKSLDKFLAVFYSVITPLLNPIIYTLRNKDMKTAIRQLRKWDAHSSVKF
OR4D1, as listed by the source: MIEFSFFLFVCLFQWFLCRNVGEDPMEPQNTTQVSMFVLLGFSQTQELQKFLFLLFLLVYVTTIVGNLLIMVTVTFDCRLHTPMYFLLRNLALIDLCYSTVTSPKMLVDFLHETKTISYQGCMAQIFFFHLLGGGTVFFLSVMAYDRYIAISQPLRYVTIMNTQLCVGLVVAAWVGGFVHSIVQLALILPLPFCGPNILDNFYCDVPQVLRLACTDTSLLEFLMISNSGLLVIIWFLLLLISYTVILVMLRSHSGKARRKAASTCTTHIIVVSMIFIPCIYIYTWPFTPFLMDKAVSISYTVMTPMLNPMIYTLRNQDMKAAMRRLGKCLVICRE
OR4CF, as listed by the source: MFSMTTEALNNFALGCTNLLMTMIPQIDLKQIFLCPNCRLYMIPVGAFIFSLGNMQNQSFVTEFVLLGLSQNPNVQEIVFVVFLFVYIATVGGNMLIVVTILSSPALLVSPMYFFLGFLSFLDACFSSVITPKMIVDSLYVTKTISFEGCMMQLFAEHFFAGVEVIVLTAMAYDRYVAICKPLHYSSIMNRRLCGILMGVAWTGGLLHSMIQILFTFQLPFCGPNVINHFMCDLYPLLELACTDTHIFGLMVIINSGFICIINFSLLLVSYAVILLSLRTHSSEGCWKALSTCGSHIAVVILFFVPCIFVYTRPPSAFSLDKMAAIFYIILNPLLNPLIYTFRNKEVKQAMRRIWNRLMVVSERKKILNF
OR4D6, as listed by the source: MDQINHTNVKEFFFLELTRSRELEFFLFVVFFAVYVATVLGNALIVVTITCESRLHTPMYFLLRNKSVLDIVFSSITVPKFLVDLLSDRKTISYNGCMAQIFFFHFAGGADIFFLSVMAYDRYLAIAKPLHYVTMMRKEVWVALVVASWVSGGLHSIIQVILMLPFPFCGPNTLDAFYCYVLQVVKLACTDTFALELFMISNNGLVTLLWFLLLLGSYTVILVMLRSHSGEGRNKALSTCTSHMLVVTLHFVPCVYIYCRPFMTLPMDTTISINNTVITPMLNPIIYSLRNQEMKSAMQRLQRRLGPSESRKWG
OR4D2, as listed by the source: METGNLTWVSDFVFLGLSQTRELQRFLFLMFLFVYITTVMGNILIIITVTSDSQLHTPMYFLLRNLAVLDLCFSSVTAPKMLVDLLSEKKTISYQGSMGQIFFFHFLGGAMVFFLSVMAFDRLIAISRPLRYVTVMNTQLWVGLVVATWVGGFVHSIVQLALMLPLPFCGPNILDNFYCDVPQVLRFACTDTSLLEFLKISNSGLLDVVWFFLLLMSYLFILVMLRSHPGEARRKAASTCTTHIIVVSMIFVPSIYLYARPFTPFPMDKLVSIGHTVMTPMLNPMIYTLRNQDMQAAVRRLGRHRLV

Legend:
Conditions in all cases: stereoisomer not certain
OR4CF = test system: OR4CF
Procedure, shortened: (§1)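 Transient luciferase assays in mammalian cell lines were common, though methods varied by source. The values come from published papers and their supplementary material, with extra details from the original authors when needed. Responsive refers to a measured signal the original authors judged statistically different from baseline, and non-responsive (inactive) to the remainder.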

OR4CG = test system: T1, OR4CG
T1 sequence (whole entry): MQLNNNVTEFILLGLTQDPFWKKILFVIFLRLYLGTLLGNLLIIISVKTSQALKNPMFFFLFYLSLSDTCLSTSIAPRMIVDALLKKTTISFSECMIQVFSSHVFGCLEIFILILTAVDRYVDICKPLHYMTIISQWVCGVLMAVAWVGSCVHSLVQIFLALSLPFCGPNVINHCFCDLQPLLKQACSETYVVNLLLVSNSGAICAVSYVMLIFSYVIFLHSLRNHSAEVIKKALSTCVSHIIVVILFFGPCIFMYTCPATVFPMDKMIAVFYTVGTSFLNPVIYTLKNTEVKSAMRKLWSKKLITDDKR
Procedure, shortened: as §1

OR4D10 (Homo sapiens) = OR4D10 (Homo sapiens) (UniProt Q8NGI6)
Procedure, shortened: as §1

OR4D11 (Homo sapiens) = OR4D11 (Homo sapiens) (UniProt Q8NGI4)
Procedure, shortened: as §1

OR4D1 = test system: OR4D1
Procedure, shortened: as §1

OR4D2 = test system: OR4D2
Procedure, shortened: as §1

OR4D5 (Homo sapiens) = OR4D5 (Homo sapiens) (UniProt Q8NGN0)
Procedure, shortened: as §1

OR4D6 = test system: OR4D6
Procedure, shortened: as §1

OR4D9 (Homo sapiens) = OR4D9 (Homo sapiens) (UniProt Q8NGE8)
Procedure, shortened: as §1

OR4E2 = test system: T2, OR4E2
T2 sequence (whole entry): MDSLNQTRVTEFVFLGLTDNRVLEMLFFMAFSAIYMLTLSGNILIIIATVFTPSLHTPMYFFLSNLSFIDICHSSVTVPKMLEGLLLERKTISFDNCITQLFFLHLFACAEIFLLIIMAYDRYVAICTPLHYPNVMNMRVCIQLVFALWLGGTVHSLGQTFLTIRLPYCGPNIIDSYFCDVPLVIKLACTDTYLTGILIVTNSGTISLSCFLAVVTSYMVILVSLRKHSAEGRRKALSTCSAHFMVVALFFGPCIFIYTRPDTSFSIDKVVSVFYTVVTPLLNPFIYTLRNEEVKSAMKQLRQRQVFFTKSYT
Procedure, shortened: as §1

OR4F15 (Homo sapiens) = biological target: T3, OR4F15 (Homo sapiens) (UniProt Q8NGB8)
T3 sequence (whole entry): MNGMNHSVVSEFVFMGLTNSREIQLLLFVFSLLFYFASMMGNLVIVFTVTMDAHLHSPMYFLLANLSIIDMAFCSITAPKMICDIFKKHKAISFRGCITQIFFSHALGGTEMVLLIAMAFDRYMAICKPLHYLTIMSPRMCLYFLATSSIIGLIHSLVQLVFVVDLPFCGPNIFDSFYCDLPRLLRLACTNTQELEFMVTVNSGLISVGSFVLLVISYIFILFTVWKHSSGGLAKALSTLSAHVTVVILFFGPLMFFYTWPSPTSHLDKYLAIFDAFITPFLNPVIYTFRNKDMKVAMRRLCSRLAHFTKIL
Procedure, shortened: as §1

OR4F3 (Homo sapiens) = biological target: T4, OR4F3 (Homo sapiens) (UniProt Q6IEY1)
T4 sequence (whole entry): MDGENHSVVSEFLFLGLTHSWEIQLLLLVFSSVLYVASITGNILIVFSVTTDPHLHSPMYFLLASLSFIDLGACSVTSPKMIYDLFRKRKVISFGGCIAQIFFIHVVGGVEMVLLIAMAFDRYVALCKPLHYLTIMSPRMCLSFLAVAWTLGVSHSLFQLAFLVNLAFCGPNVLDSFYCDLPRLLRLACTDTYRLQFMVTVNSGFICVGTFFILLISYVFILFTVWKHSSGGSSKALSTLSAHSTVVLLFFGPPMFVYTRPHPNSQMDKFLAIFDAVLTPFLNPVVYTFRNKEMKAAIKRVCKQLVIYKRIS
Procedure, shortened: as §1

OR4F3 = test system: T5, OR4F3
T5 sequence (whole entry): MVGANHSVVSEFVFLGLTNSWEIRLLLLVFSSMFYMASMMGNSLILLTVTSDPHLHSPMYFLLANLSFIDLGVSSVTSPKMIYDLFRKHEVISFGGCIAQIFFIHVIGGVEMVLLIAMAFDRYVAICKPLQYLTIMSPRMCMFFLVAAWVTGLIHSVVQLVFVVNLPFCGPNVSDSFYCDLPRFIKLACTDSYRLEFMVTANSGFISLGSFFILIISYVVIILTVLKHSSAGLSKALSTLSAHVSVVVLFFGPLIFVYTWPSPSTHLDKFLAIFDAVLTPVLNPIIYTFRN
Procedure, shortened: as §1

OR4D1 (Homo sapiens) = OR4D1 (Homo sapiens) (UniProt Q15615)
Procedure, shortened: as §1

OR4D2 (Homo sapiens) = OR4D2 (Homo sapiens) (UniProt P58180)
Procedure, shortened: as §1

OR4D6 (Homo sapiens) = OR4D6 (Homo sapiens) (UniProt Q8NGJ1)
Procedure, shortened: as §1

OR4E2 (Homo sapiens) = OR4E2 (Homo sapiens) (UniProt Q8NGC2)
Procedure, shortened: as §1

OR4F17 (Homo sapiens) = OR4F17 (Homo sapiens) (UniProt Q8NGA8)
Procedure, shortened: as §1

OR4F21 (Homo sapiens) = OR4F21 (Homo sapiens) (UniProt O95013)
Procedure, shortened: as §1

Measured: odorant receptor agonist call

CC(=O)OC1CC2CCC1(C)C2(C)C (stereo not given)
inactive: OR4CF | OR4CG | OR4D10 (Homo sapiens) | OR4D11 (Homo sapiens) | OR4D1 | OR4D2 | OR4D5 (Homo sapiens) | OR4D6 | OR4D9 (Homo sapiens) | OR4E2 | OR4F15 (Homo sapiens) | OR4F3 (Homo sapiens) | OR4F3

CC1=CCC(C(C)(C)O)CC1 (stereo not given)
inactive: OR4CF | OR4CG | OR4D10 (Homo sapiens) | OR4D11 (Homo sapiens) | OR4D1 | OR4D2 | OR4D5 (Homo sapiens) | OR4D6 | OR4D9 (Homo sapiens) | OR4E2 | OR4F15 (Homo sapiens) | OR4F3 (Homo sapiens) | OR4F3

c1ccc(Oc2ccccc2)cc1
inactive: OR4CF | OR4CG | OR4D10 (Homo sapiens) | OR4D11 (Homo sapiens) | OR4D1 | OR4D2 | OR4D5 (Homo sapiens) | OR4D6 | OR4D9 (Homo sapiens) | OR4E2 | OR4F15 (Homo sapiens) | OR4F3 (Homo sapiens) | OR4F3

CC12C=CCC1C1CCC3CC(=O)CCC3(C)C1CC2 (stereo not given)
inactive: OR4CF | OR4CG | OR4D1 (Homo sapiens) | OR4D11 (Homo sapiens) | OR4D1 | OR4D2 (Homo sapiens) | OR4D2 | OR4D5 (Homo sapiens) | OR4D6 (Homo sapiens) | OR4E2 (Homo sapiens) | OR4E2 | OR4F15 (Homo sapiens) | OR4F17 (Homo sapiens) | OR4F21 (Homo sapiens) | OR4F3 (Homo sapiens) | OR4F3
active: OR4D6

CCCCCC(=O)O
inactive: OR4CF | OR4CG | OR4D10 (Homo sapiens) | OR4D11 (Homo sapiens) | OR4D1 | OR4D2 | OR4D5 (Homo sapiens) | OR4D6 | OR4D9 (Homo sapiens) | OR4E2 | OR4F15 (Homo sapiens) | OR4F3 (Homo sapiens) | OR4F3

Already shown: two of the compounds above.
CC12C=CCC1C1CCC3CC(=O)CCC3(C)C1CC2 (stereo not given)
inactive: OR4CF | OR4CG | OR4D1 (Homo sapiens) | OR4D11 (Homo sapiens) | OR4D1 | OR4D2 (Homo sapiens) | OR4D2 | OR4D5 (Homo sapiens) | OR4D6 (Homo sapiens) | OR4E2 (Homo sapiens) | OR4E2 | OR4F15 (Homo sapiens) | OR4F17 (Homo sapiens) | OR4F21 (Homo sapiens) | OR4F3 (Homo sapiens) | OR4F3
active: OR4D6

CCCCCC(=O)O
inactive: OR4CF | OR4CG | OR4D10 (Homo sapiens) | OR4D11 (Homo sapiens) | OR4D1 | OR4D2 | OR4D5 (Homo sapiens) | OR4D6 | OR4D9 (Homo sapiens) | OR4E2 | OR4F15 (Homo sapiens) | OR4F3 (Homo sapiens) | OR4F3

Additional compounds follow:

CCCCCCCCCCC=O
inactive: OR4CF | OR4CG | OR4D10 (Homo sapiens) | OR4D11 (Homo sapiens) | OR4D1 | OR4D2 | OR4D5 (Homo sapiens) | OR4D6 | OR4D9 (Homo sapiens) | OR4E2 | OR4F15 (Homo sapiens) | OR4F3 (Homo sapiens) | OR4F3

C=CCc1ccc(OC(C)=O)c(OC)c1
active: OR4D2 (Homo sapiens) | OR4D5 (Homo sapiens)
inactive: OR4CF | OR4CG | OR4D10 (Homo sapiens) | OR4D11 (Homo sapiens) | OR4D1 | OR4D6 | OR4D9 (Homo sapiens) | OR4E2 | OR4F15 (Homo sapiens) | OR4F3 (Homo sapiens) | OR4F3

CCCCCCCCOC(C)=O
inactive: OR4CF | OR4CG | OR4D10 (Homo sapiens) | OR4D11 (Homo sapiens) | OR4D1 | OR4D2 | OR4D5 (Homo sapiens) | OR4D6 | OR4D9 (Homo sapiens) | OR4E2 | OR4F15 (Homo sapiens) | OR4F3 (Homo sapiens) | OR4F3

C=CCSCC=C
inactive: OR4CF | OR4CG | OR4D10 (Homo sapiens) | OR4D11 (Homo sapiens) | OR4D1 | OR4D2 | OR4D5 (Homo sapiens) | OR4D6 | OR4D9 (Homo sapiens) | OR4E2 | OR4F15 (Homo sapiens) | OR4F3 (Homo sapiens) | OR4F3

CCCCCCCC=O
inactive: OR4CF | OR4CG | OR4D10 (Homo sapiens) | OR4D11 (Homo sapiens) | OR4D1 | OR4D2 | OR4D5 (Homo sapiens) | OR4D6 | OR4D9 (Homo sapiens) | OR4E2 | OR4F15 (Homo sapiens) | OR4F3 (Homo sapiens) | OR4F3

CC(C)=CCCC(C)=CC=O
inactive: OR4CF | OR4CG | OR4D10 (Homo sapiens) | OR4D11 (Homo sapiens) | OR4D1 | OR4D2 | OR4D5 (Homo sapiens) | OR4D6 | OR4D9 (Homo sapiens) | OR4E2 | OR4F15 (Homo sapiens) | OR4F3 (Homo sapiens) | OR4F3

c1cnccn1
inactive: OR4CF | OR4CG | OR4D10 (Homo sapiens) | OR4D11 (Homo sapiens) | OR4D1 | OR4D2 | OR4D5 (Homo sapiens) | OR4D6 | OR4D9 (Homo sapiens) | OR4E2 | OR4F15 (Homo sapiens) | OR4F3 (Homo sapiens) | OR4F3
